Record: PubChem BioAssay AID1259308 (NCATS, 2017)
This is an unselected part of about 59,000 deposited reagents. Of all reagents, about 1,510 (2.6%) got an active call. 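Calls use total luciferase alone and ignore viability, so some active siRNAs may act by altering cell number.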 Entries without a mark were called inactive. The numbers tell different reagents against one gene apart.

Aim: 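Candidate targets for better recombinant protein yield in mammalian cells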 (primary screen)
System: human HEK293 embryonic kidney cells stably expressing firefly luciferase (HEK-CMV-Luc2-Hygro)
Knock-down reagent: single siRNA against human genes, 0.8 pmol siRNA per well
Time to read-out: 72 h
Measurement: 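Luciferase light (ONE-Glo) measured on one replicate plate set and viability (CellTiter-Glo) on the other, scaled to a negative control siRNA, with robust z-scores and luciferase per cell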
Direction: total luciferase, z-score and total luciferase, % of control: higher = more reporter protein produced; luciferase per cell, z-score: higher = more reporter output per viable cell; viable cells, % of control: higher = more viable cells
Hit rule: 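An siRNA counts as active if its total luciferase robust z-score exceeds 3; genes with two or more such siRNAs out of three were retested with fresh siRNAs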
Calls: active = raised luciferase; inactive = no rise

| target gene | reagent | total luciferase, z-score | total luciferase, % of control | luciferase per cell, z-score | viable cells, % of control |
| --- | --- | --- | --- | --- | --- |
| ZNF789 | 1 | 0.948 | 101 | 0.511 | 98.4 |
| ZNF789 | 2 | 0.98 | 101 | 2.67 | 56.1 |
| ZNF789 | 3 | 0.72 | 96.2 | 0.9 | 84.8 |
| MMS19 | 1 | 0.194 | 85.7 | -0.0662 | 97.5 |
| MMS19 | 2 | 0.477 | 91.4 | 1.08 | 76.8 |
| MMS19 | 3 | -0.0542 | 80.8 | -0.0245 | 90.9 |
| PHLDB1 | 1 | 0.951 | 101 | 0.769 | 92 |
| PHLDB1 | 2 | -0.174 | 78.4 | 0.481 | 77.2 |
| PHLDB1 | 3 | 1.91 | 120 | 0.706 | 111 |
| FGF12 | 1 | -0.713 | 67.7 | -0.904 | 96 |
| FGF12 | 2 | -0.263 | 76.7 | 0.301 | 79.1 |
| FGF12 | 3 | -0.936 | 63.3 | -0.761 | 86.4 |
| TOPBP1 | 1 | 2.05 | 123 | 1.25 | 98.5 |
| TOPBP1 | 2 | -0.923 | 63.5 | -1.32 | 100 |
| TOPBP1 | 3 | -0.25 | 76.9 | -0.568 | 99.8 |
| ADGRG5 | 1 | -0.985 | 62.3 | -0.334 | 76 |
| ADGRG5 | 2 | 0.94 | 101 | -0.214 | 119 |
| ADGRG5 | 3 | 0.174 | 85.3 | -0.225 | 101 |
| OTOF | 1 | -0.239 | 77.1 | -0.234 | 91.7 |
| OTOF | 2 | 0.393 | 89.7 | 0.692 | 83.5 |
| OTOF | 3 | -1.08 | 60.3 | -0.757 | 82.3 |
| KLHDC8B | 1 | -1.04 | 61.1 | -0.082 | 69.8 |
| KLHDC8B | 2 | 1.08 | 103 | 1.67 | 74.5 |
| KLHDC8B | 3 | -0.127 | 79.4 | 0.038 | 87.8 |
| BRCC3 | 1 | -0.936 | 63.3 | -0.0112 | 70.9 |
| BRCC3 | 2 | -1.12 | 59.6 | -0.161 | 69.4 |
| BRCC3 | 3 | 0.543 | 92.7 | 0.18 | 98.8 |
| POLR3G | 1 | 0.802 | 97.8 | 1.47 | 74.2 |
| POLR3G | 2 | 0.874 | 99.3 | 1.45 | 75.8 |
| POLR3G | 3 | -1.84 | 45.2 | -2.73 | 104 |
| NMUR2 | 1 | -0.219 | 77.5 | 1.24 | 62.5 |
| NMUR2 | 2 | -0.269 | 76.5 | -0.373 | 94.3 |
| NMUR2 | 3 | -0.0465 | 81 | -0.273 | 97.2 |
| KIF1A | 1 | 2.32 | 128 | 1.51 | 96.2 |
| KIF1A | 2 | 0.0767 | 83.4 | -0.565 | 108 |
| KIF1A | 3 | 0.658 | 95 | 0.703 | 88.2 |
| MTF1 | 1 | 1.11 | 104 | 0.464 | 103 |
| MTF1 | 2 | 2.48 | 131 | 1.53 | 98 |
| MTF1 | 3 | 0.808 | 98 | 0.482 | 96.4 |
| BICD2 | 1 | -0.419 | 73.6 | -0.654 | 97.7 |
| BICD2 | 2 | 0.431 | 90.5 | -0.0877 | 103 |
| BICD2 | 3 | -0.164 | 78.6 | 0.123 | 85.1 |
| LRRC55 | 1 | 1.67 | 115 | 1.63 | 83.7 |
| LRRC55 | 2 | -0.482 | 72.3 | -0.678 | 96.6 |
| LRRC55 | 3 | -0.863 | 64.7 | -1.82 | 117 |
| RPL23AP2 | 1 | 1.32 | 108 | 2.09 | 69.6 |
| RPL23AP2 | 2 | 0.405 | 89.9 | 1.56 | 66.7 |
| RPL23AP2 | 3 | 0.645 | 94.7 | 0.35 | 96.5 |
| CNKSR2 | 1 | 1.24 | 107 | 1.46 | 81 |
| CNKSR2 | 2 | -0.153 | 78.8 | -0.217 | 93.3 |
| CNKSR2 | 3 | -2.07 | 40.7 | -2.27 | 82.7 |
| DISP3 | 1 | 0.105 | 84 | -0.184 | 98.5 |
| DISP3 | 2 | -1.14 | 59.2 | -0.815 | 81.9 |
| DISP3 | 3 | -0.181 | 78.3 | -0.324 | 95.3 |
| KRTAP9-1 | 1 | -1.58 | 50.6 | -0.215 | 59.8 |
| KRTAP9-1 | 2 | -0.864 | 64.7 | -0.594 | 84.5 |
| KRTAP9-1 | 3 | 0.754 | 96.9 | 0.84 | 86.8 |
| IQGAP3 | 1 | -1.19 | 58.2 | -2.13 | 114 |
| IQGAP3 | 2 | 1.09 | 104 | 0.954 | 90 |
| IQGAP3 | 3 | -2.02 | 41.7 | -2.64 | 93.4 |
| SLC2A2 | 1 | -0.436 | 73.2 | -0.829 | 102 |
| SLC2A2 | 2 | -0.603 | 69.9 | -0.156 | 81.4 |
| SLC2A2 | 3 | 0.443 | 90.7 | -0.207 | 107 |
| HOXD12 | 1 | 3.13 (active) | 144 | 2.96 | 74 |
| HOXD12 | 2 | -1.55 | 51 | -1.21 | 78.3 |
| HOXD12 | 3 | -1.27 | 56.6 | -0.852 | 79.1 |
| FRG1-DT | 1 | 0.872 | 99.2 | 0.628 | 94 |
| FRG1-DT | 2 | -0.741 | 67.2 | -0.632 | 88.6 |
| FRG1-DT | 3 | -0.666 | 68.6 | -1.2 | 105 |
| HINT2 | 1 | 0.0619 | 83.1 | 0.199 | 88.1 |
| HINT2 | 2 | 0.402 | 89.9 | 0.509 | 87.9 |
| HINT2 | 3 | 0.101 | 83.9 | 0.764 | 76.7 |
| SLAMF8 | 1 | -1.13 | 59.5 | -0.473 | 75.3 |
| SLAMF8 | 2 | 1.24 | 106 | 1.64 | 77.2 |
| SLAMF8 | 3 | -1.22 | 57.7 | -0.918 | 82.1 |

In a second layout: entries from further up
{"target gene": "BRCC3", "reagent": 1, "total luciferase, z-score": -0.936, "total luciferase, % of control": 63.3, "luciferase per cell, z-score": -0.0112, "viable cells, % of control": 70.9}
{"target gene": "BRCC3", "reagent": 2, "total luciferase, z-score": -1.12, "total luciferase, % of control": 59.6, "luciferase per cell, z-score": -0.161, "viable cells, % of control": 69.4}
{"target gene": "BRCC3", "reagent": 3, "total luciferase, z-score": 0.543, "total luciferase, % of control": 92.7, "luciferase per cell, z-score": 0.18, "viable cells, % of control": 98.8}
{"target gene": "POLR3G", "reagent": 1, "total luciferase, z-score": 0.802, "total luciferase, % of control": 97.8, "luciferase per cell, z-score": 1.47, "viable cells, % of control": 74.2}
{"target gene": "POLR3G", "reagent": 2, "total luciferase, z-score": 0.874, "total luciferase, % of control": 99.3, "luciferase per cell, z-score": 1.45, "viable cells, % of control": 75.8}
{"target gene": "POLR3G", "reagent": 3, "total luciferase, z-score": -1.84, "total luciferase, % of control": 45.2, "luciferase per cell, z-score": -2.73, "viable cells, % of control": 104}
